From the supplement of paper PMC9233669
Variants at the floor of the assay are shown more often than the library holds them.

Key:
biotinyl-Ile-oxazolone = assay: self-aminoacylation, catalytic enhancement (BIO) (fold over background); higher = more active; k-Seq, kA / k0A0; sequences stand for … in GGGAAUGGAUCCACAUCUACGAAUUC…UUCACUGCAGACUUGACGAAGCUG
How it was run: (§1)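 Mutagenized RNA pools with a 21-nt variable region (0.43 μM) reacted with each biotinyl-aminoacyl-oxazolone at 2–1250 μM. Reactions ran in 50 μL HEPES/NaCl/KCl/MgCl2/CaCl2 buffer with 5% acetonitrile, pH 6.9–7.0, for 90 minutes at room temperature. Streptavidin-captured RNA was quantified by triplicate qPCR and Illumina sequencing, and per-sequence fraction reacted was fit to a pseudo-first-order model with 1000 bootstraps. Catalytic enhancement is median kA divided by the uncatalyzed rate, the low-activity peak of a bimodal Gaussian fit.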

biotinyl-Phe-oxazolone = assay: self-aminoacylation, catalytic enhancement (BFO) (fold over background); higher = more active; k-Seq, kA / k0A0; sequences stand for … in GGGAAUGGAUCCACAUCUACGAAUUC…UUCACUGCAGACUUGACGAAGCUG
How it was run: as §1

biotinyl-Met-oxazolone = assay: self-aminoacylation, catalytic enhancement (BMO) (fold over background); higher = more active; k-Seq, kA / k0A0; sequences stand for … in GGGAAUGGAUCCACAUCUACGAAUUC…UUCACUGCAGACUUGACGAAGCUG
How it was run: as §1

biotinyl-Val-oxazolone = assay: self-aminoacylation, catalytic enhancement (BVO) (fold over background); higher = more active; k-Seq, kA / k0A0; sequences stand for … in GGGAAUGGAUCCACAUCUACGAAUUC…UUCACUGCAGACUUGACGAAGCUG
How it was run: as §1

biotinyl-Trp-oxazolone = assay: self-aminoacylation, catalytic enhancement (BWO) (fold over background); higher = more active; k-Seq, kA / k0A0; sequences stand for … in GGGAAUGGAUCCACAUCUACGAAUUC…UUCACUGCAGACUUGACGAAGCUG
How it was run: as §1

biotinyl-Leu-oxazolone = assay: self-aminoacylation, catalytic enhancement (BLO) (fold over background); higher = more active; k-Seq, kA / k0A0; sequences stand for … in GGGAAUGGAUCCACAUCUACGAAUUC…UUCACUGCAGACUUGACGAAGCUG
How it was run: as §1

Row | Sequence | self-aminoacylation (biotinyl-Ile-oxazolone) | self-aminoacylation (biotinyl-Phe-oxazolone) | self-aminoacylation (biotinyl-Met-oxazolone) | self-aminoacylation (biotinyl-Val-oxazolone) | self-aminoacylation (biotinyl-Trp-oxazolone) | self-aminoacylation (biotinyl-Leu-oxazolone)
1 | CUACUUCAAACGAUCGGUCGG [Fam1A.1 aminoacylation ribozyme variant] | 0.961 | 1.27 | 1.39 | 1.15 | 0.765 | 1.16
2 | CUACUUCAAACGAUCGGUCUU [Fam1A.1 aminoacylation ribozyme variant] | 0.775 | 0.949 | 0.781 | 0.767 | 0.655 | 0.656
3 | CUACUUCAAACUAUCGGACUG [Fam1A.1 aminoacylation ribozyme variant] | 0.935 | 0.65 | 0.643 | 0.893 | 0.547 | 0.697
4 | CUACUUCAAACUAUCGGUCCG [Fam1A.1 aminoacylation ribozyme variant] | 0.765 | 0.581 | 0.619 | 0.888 | 0.414 | 0.718
5 | CUACUUCAAACUAUCGGUUUG [Fam1A.1 aminoacylation ribozyme variant] | 0.944 | 0.88 | 0.748 | 0.961 | 0.697 | 0.829
6 | CUACUUCAAACUUUCGGUCUG [Fam1A.1 aminoacylation ribozyme variant] | 1.23 | 1.12 | 1.21 | 1.24 | 1.09 | 1.24
7 | CUACUUCAAAGAAUCGGACUG [Fam1A.1 aminoacylation ribozyme variant] | 0.992 | 1.29 | 0.91 | 0.808 | 0.932 | 0.818
8 | CUACUUCAAAGAAUCUGUCUG [Fam1A.1 aminoacylation ribozyme variant] | 0.674 | 1.11 | 0.567 | 0.696 | 0.654 | 0.616
9 | CUACUUCAAAUAAUCCGUCUG [Fam1A.1 aminoacylation ribozyme variant] | 0.756 | 1.35 | 0.701 | 0.81 | 1.01 | 0.732
10 | CUACUUCAAAUAAUCGAUCUG [Fam1A.1 aminoacylation ribozyme variant] | 0.669 | 1.94 | 0.534 | 0.592 | 0.839 | 0.495
11 | CUACUUCAAAUACUCGGUCUG [Fam1A.1 aminoacylation ribozyme variant] | 0.832 | 0.622 | 0.972 | 0.84 | 0.71 | 0.807
12 | CUACUUCAACCGAUCGGUCUG [Fam1A.1 aminoacylation ribozyme variant] | 0.763 | 1.14 | 0.979 | 0.917 | 1.43 | 0.788
13 | CUACUUCAAGCAGUCGGUCUG [Fam1A.1 aminoacylation ribozyme variant] | 0.938 | 0.717 | 0.983 | 0.918 | 0.737 | 1.08
14 | CUACUUCAAGCGAUCGGUCUG [Fam1A.1 aminoacylation ribozyme variant] | 0.77 | 0.917 | 0.769 | 0.781 | 0.654 | 0.799
15 | CUACUUCACACAAUCGGUCCG [Fam1A.1 aminoacylation ribozyme variant] | 0.991 | 0.558 | 0.883 | 0.955 | 0.87 | 0.929
16 | CUACUUCAGACAAUCAGUCUG [Fam1A.1 aminoacylation ribozyme variant] | 0.734 | 0.913 | 0.568 | 0.663 | 0.473 | 0.567
17 | CUACUUCAGACAGUCGGUCUG [Fam1A.1 aminoacylation ribozyme variant] | 0.778 | 0.272 | 0.662 | 0.972 | 0.672 | 0.752
18 | CUACUUCAUACAAUCGGUCUC [Fam1A.1 aminoacylation ribozyme variant] | 0.839 | 0.696 | 0.72 | 0.789 | 0.426 | 0.636
19 | CUACUUCAUCCAAUCGGUCUG [Fam1A.1 aminoacylation ribozyme variant] | 0.706 | 0.483 | 0.76 | 0.709 | 0.414 | 0.533
20 | CUACUUCCAAAAAUCGGUCUG [Fam1A.1 aminoacylation ribozyme variant] | 0.907 | 0.806 | 1.03 | 0.85 | 0.959 | 0.832
21 | CUACUUCCAACAAUCAGUCUG [Fam1A.1 aminoacylation ribozyme variant] | 0.742 | 1.06 | 0.636 | 0.746 | 0.705 | 0.703
22 | CUACUUCCAACAAUCGCUCUG [Fam1A.1 aminoacylation ribozyme variant] | 0.894 | 0.675 | 0.711 | 0.71 | 0.5 | 0.858
23 | CUACUUCCAACAAUCGGUCUU [Fam1A.1 aminoacylation ribozyme variant] | 1.01 | 0.787 | 0.764 | 0.813 | 0.435 | 0.843
24 | CUACUUCGAACAAUCGAUCUG [Fam1A.1 aminoacylation ribozyme variant] | 0.7 | 0.525 | 0.424 | 0.645 | 0.41 | 0.648
25 | CUACUUCUAACAAACGGUCUG [Fam1A.1 aminoacylation ribozyme variant] | 0.768 | 0.566 | 0.565 | 0.688 | 0.559 | 0.532
26 | CUACUUCUAACAAUCGGCCUG [Fam1A.1 aminoacylation ribozyme variant] | 1.09 | 1.01 | 0.997 | 1.2 | 1.05 | 1.31
